Data as given in PubChem BioAssay AID1259308 (NCATS, 2017).
Screen: 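Knock-downs that increase output of a recombinant reporter protein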 (primary screen). Cells: human HEK293 embryonic kidney cells stably expressing firefly luciferase (HEK-CMV-Luc2-Hygro). Reagent: single siRNA against human genes, 0.8 pmol siRNA per well. Time to read-out: 72 h. Measurement: 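Reporter luminescence and viable-cell signal on separate replicate plates, given as percent of non-targeting control and median/MAD z-scores, plus per-cell luciferase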. Reading the numbers: total luciferase, z-score: higher = more reporter protein produced. Rule for the call: 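An siRNA counts as active if its total luciferase robust z-score exceeds 3; genes with two or more such siRNAs out of three were retested with fresh siRNAs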. Meaning of the calls: active = raised luciferase; inactive = no rise.
This is an unselected part of about 59,000 reagents. Of all reagents, about 1,510 (2.6%) are marked active. 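Calls use total luciferase alone and ignore viability, so some active siRNAs may act by altering cell number.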 The numbers tell different reagents against one gene apart. Not all columns of the deposit are shown. No sequences are given here.

target | siRNA no. | total luciferase, z-score | outcome
ALYREF | 1 | -0.841 | inactive
ALYREF | 2 | -0.0569 | inactive
ALYREF | 3 | -1.37 | inactive
FAM171B | 1 | 0.996 | inactive
FAM171B | 2 | -1.2 | inactive
FAM171B | 3 | -0.105 | inactive
IKZF5 | 1 | 0.907 | inactive
IKZF5 | 2 | -0.822 | inactive
IKZF5 | 3 | 0.529 | inactive
HLA-B | 1 | 0.257 | inactive
HLA-B | 2 | 1.6 | inactive
HLA-B | 3 | -0.206 | inactive
HLA-B | 4 | -0.907 | inactive
HLA-B | 5 | 0.529 | inactive
HLA-B | 6 | 1.5 | inactive
UFC1 | 1 | -0.752 | inactive
UFC1 | 2 | -0.255 | inactive
UFC1 | 3 | 2.94 | inactive
TOP3A | 1 | 0.573 | inactive
TOP3A | 2 | -1.02 | inactive
TOP3A | 3 | 4.99 | active
H3C13 | 1 | -0.528 | inactive
H3C13 | 2 | 1.69 | inactive
H3C13 | 3 | -1.34 | inactive
HTT | 1 | -0.66 | inactive
HTT | 2 | -2.03 | inactive
HTT | 3 | 2.62 | inactive
LINC00479 | 1 | -0.368 | inactive
LINC00479 | 2 | -0.151 | inactive
LINC00479 | 3 | 1.36 | inactive
ZFTA | 1 | 0.424 | inactive
ZFTA | 2 | -0.725 | inactive
ZFTA | 3 | -0.107 | inactive
FGFR1OP2 | 1 | 0.96 | inactive
FGFR1OP2 | 2 | 0.995 | inactive
FGFR1OP2 | 3 | -1.67 | inactive
PKP4 | 1 | 2.02 | inactive
PKP4 | 2 | -1.53 | inactive
PKP4 | 3 | -1.04 | inactive
PDCD1LG2 | 1 | -0.0808 | inactive
PDCD1LG2 | 2 | 1.35 | inactive
PDCD1LG2 | 3 | -0.373 | inactive
NUP210 | 1 | -0.921 | inactive
NUP210 | 2 | 0.0532 | inactive
NUP210 | 3 | -0.189 | inactive
GPR55 | 1 | -1.68 | inactive
GPR55 | 2 | 0.803 | inactive
GPR55 | 3 | 0.0247 | inactive
COG8 | 1 | -0.502 | inactive
COG8 | 2 | 3.17 | active
COG8 | 3 | 2.44 | inactive
PIGN | 1 | -0.784 | inactive
PIGN | 2 | 2.95 | inactive
PIGN | 3 | 0.81 | inactive
HDHD2 | 1 | 0.572 | inactive
HDHD2 | 2 | -0.88 | inactive
HDHD2 | 3 | -0.0233 | inactive
CLINT1 | 1 | 2.62 | inactive
CLINT1 | 2 | 0.141 | inactive
CLINT1 | 3 | 0.0838 | inactive
ARL8A | 1 | -1.05 | inactive
ARL8A | 2 | 0.475 | inactive
ARL8A | 3 | -1.14 | inactive
ZNF609 | 1 | 0.755 | inactive
ZNF609 | 2 | -0.36 | inactive
ZNF609 | 3 | 0.526 | inactive
NTNG1 | 1 | -0.588 | inactive
NTNG1 | 2 | 0.252 | inactive
NTNG1 | 3 | -0.463 | inactive
TPST2 | 1 | 0.823 | inactive
TPST2 | 2 | -0.663 | inactive
TPST2 | 3 | 0.328 | inactive
ACADVL | 1 | -0.609 | inactive
ACADVL | 2 | 1.5 | inactive
ACADVL | 3 | 8.84 | active

Reprinted from the listing (5 entries):
target | siRNA no. | total luciferase, z-score | outcome
HDHD2 | 3 | -0.0233 | inactive
CLINT1 | 1 | 2.62 | inactive
CLINT1 | 2 | 0.141 | inactive
CLINT1 | 3 | 0.0838 | inactive
ARL8A | 1 | -1.05 | inactive
